Experimental data: paper PMC5027291, “The NF-YC–RGL2 module integrates GA and ABA signalling to regulate seed germination in Arabidopsis” (Nature Communications, 2016)
These are yes or no findings as the source states them, for the method shown. Binding calls can cover weak binding; strength is not graded here. Tags and fused reporters may be left off the sequences shown.

Biological target: T1, BD-NF-YC9 (Arabidopsis) (UniProt Q8L4B2)
T1 sequence: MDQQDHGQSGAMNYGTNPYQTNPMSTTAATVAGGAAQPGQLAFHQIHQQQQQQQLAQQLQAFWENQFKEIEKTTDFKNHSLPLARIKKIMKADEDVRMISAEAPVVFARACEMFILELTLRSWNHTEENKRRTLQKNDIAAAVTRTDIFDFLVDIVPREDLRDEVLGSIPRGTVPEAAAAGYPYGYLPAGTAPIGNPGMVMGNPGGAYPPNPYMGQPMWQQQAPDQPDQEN
Assay: two-hybrid; yeast AH109 co-transformed with pGBKT7 bait and pGADT7 prey constructs; growth on SD/-Trp/-Leu/-His/-Ade

| Substance | binding |
| --- | --- |
| RGL2ΔD (Arabidopsis) (domain or fragment) | binds |
| RGL2ΔG (Arabidopsis) (domain or fragment) | no binding |
